The values that follow come from paper PMC4619689.

Chains of the proteins cited; added tags and fusions are not shown. Lines headed by an entry give the natural chain unless they say otherwise; changes in a name come on top.
UniProt Q5ZJC3: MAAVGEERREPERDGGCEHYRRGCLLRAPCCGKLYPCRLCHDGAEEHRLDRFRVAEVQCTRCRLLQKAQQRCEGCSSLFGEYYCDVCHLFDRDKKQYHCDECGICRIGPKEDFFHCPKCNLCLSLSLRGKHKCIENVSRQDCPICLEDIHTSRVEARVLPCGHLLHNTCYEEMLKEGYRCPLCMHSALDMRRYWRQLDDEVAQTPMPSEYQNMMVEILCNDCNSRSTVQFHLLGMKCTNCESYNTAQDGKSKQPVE
UniProt Q08727: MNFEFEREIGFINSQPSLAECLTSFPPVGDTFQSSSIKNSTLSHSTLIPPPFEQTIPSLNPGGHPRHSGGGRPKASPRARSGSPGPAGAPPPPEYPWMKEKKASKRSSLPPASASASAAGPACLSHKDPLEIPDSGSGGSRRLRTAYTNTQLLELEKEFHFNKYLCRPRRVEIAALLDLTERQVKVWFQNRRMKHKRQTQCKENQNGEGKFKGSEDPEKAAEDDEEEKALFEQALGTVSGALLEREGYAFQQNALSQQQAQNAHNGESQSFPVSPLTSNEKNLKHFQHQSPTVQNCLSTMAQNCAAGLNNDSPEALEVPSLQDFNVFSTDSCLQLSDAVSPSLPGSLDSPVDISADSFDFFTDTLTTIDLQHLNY

These are yes or no findings as the source states them, for the method shown. Binding seen in cells or lysates may run through a third protein. Binding calls can cover weak binding; strength is not graded here.

The assay has as its target Rchy1 (chicken), BiFC fusion (chicken) (UniProt Q5ZJC3). Briefly: split reporter; COS-7 cells on coverslips transfected with pExp-VN173 and pExp-VC155 fusion vectors (500 ng each), fixed 24 to 31 h after transfection. Where indicated the cells were treated with the proteasome inhibitor MG132. Counted positive at 3 times or more the fluorescence of the 3 control conditions.

Turning to “Hoxa2 (chicken), BiFC fusion (from UniProt Q08727 1-375)”, the binding result is reported as “binds”.
